Experimental data: article PMC8481269
These are yes or no findings as the source states them, for the method shown. Binding seen in cells or lysates may run through a third protein. Some results given as binding are weak or reduced against the parent protein; the word gives no strength.

Protein sequences, listed by entry. Tags and fused reporters are not part of them.
UniProt Q99836: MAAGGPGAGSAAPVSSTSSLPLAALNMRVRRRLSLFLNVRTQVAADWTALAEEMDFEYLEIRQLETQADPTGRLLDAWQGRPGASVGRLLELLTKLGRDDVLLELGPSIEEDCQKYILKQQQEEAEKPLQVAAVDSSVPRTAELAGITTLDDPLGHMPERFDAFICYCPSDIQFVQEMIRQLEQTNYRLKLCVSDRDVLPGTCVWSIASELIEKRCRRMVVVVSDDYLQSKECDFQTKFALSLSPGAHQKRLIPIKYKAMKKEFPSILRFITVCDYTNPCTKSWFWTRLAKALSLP
UniProt Q14790: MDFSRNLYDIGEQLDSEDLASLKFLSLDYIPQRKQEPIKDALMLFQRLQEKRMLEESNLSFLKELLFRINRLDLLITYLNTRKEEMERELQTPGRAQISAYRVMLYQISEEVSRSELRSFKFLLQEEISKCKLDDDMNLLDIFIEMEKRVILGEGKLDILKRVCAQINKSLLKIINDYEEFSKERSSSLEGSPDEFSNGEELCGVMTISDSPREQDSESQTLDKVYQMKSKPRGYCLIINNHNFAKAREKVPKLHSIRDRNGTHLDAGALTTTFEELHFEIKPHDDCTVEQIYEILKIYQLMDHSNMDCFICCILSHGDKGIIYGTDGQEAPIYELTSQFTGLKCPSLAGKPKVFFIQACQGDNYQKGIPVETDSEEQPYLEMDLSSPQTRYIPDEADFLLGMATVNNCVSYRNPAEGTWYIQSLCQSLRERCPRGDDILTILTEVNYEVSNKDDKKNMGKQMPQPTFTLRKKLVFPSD
UniProt Q15746: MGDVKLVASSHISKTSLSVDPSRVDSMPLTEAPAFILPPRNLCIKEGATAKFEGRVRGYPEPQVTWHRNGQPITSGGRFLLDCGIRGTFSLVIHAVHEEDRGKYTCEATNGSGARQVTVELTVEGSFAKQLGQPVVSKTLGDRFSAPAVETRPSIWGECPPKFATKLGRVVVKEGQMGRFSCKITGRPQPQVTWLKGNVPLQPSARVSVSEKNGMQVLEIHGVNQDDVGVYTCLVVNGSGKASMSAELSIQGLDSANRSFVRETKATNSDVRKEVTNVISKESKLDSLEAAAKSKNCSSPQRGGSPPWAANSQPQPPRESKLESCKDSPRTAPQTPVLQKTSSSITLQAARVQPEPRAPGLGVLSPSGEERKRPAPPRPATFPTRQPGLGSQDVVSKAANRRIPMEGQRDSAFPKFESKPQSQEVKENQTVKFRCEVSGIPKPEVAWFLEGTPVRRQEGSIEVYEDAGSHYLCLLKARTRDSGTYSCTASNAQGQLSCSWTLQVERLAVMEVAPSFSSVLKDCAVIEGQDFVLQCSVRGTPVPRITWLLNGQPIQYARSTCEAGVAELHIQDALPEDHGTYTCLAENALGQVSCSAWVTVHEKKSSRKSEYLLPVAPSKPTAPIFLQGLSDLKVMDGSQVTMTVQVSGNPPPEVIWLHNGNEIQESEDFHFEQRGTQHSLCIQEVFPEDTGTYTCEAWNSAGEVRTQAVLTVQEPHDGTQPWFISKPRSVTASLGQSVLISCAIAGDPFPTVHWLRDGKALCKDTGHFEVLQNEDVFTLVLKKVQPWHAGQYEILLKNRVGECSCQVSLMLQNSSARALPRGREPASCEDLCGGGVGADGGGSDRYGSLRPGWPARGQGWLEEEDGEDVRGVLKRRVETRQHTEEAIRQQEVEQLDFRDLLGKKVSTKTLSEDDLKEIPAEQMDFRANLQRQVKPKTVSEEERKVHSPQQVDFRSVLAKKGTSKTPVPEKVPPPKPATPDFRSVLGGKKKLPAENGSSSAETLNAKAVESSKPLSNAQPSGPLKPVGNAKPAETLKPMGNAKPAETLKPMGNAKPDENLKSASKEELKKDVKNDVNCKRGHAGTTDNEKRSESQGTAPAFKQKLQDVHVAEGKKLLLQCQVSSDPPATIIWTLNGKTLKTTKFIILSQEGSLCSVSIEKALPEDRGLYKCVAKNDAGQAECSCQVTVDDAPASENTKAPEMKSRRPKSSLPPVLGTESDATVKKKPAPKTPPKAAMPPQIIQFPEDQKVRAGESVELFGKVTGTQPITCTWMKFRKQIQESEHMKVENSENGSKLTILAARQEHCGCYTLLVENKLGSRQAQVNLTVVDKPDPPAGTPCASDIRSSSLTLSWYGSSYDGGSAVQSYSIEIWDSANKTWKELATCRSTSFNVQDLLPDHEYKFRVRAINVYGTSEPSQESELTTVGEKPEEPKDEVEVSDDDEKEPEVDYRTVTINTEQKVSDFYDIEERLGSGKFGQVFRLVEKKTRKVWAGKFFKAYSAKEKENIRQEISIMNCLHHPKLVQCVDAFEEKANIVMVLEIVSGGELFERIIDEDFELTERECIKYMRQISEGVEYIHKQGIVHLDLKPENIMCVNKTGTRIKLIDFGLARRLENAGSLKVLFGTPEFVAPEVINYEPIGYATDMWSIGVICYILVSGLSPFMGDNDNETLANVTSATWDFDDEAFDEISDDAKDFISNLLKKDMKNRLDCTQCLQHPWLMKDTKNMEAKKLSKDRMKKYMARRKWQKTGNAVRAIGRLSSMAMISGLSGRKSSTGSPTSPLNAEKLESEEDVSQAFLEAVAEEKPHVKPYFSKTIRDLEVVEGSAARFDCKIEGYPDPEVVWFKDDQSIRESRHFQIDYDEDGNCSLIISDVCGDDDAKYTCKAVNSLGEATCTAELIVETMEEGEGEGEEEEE

Assays:
Assay in all cases: co-IP; endogenous proteins in HepG2 lysates (IP lysis buffer); antibody (anti-nmMYLK, anti-MyD88 or anti-Caspase-8) and magnetic beads at 4 °C all night, washed in PBS, western blot; cells with or without LPS, shCTR or shnmMYLK
[1] = biological target: MyD88 (human (endogenous in HepG2)) (UniProt Q99836)
[2] = biological target: Caspase-8 (human (endogenous in HepG2)) (UniProt Q14790)
[3] = biological target: nonmuscle isoform of myosin light chain kinase (human (endogenous in HepG2)) (UniProt Q15746)

Row | Substance | binding [1] | binding [2] | binding [3]
1 | Caspase-8 (from UniProt Q14790 1-479) | binds |  | 
2 | MyD88 (from UniProt Q99836 1-296) |  | binds | binds
3 | nonmuscle isoform of myosin light chain kinase (from UniProt Q15746 1-1914) | binds | no binding | 
